# Assay results taken from patent US8420312B2, “Genes associated with canine osteoarthritis and related methods and compositions” (Nestec S.A., priority 2004, dated 2013).
# At least one structure is not confirmed: it was looked up by name or label, or the drawing left a doubt.
# Tested on: OA-Associated Genes
# Test: Microarray analysis of chondrocytes enriched with EPA or AA
# Type: cell-based, canine
# Details: summary statement, Tables 21-23
# Source text: Microarray probes were generated by PCR-amplifying clones isolated from differential display. Probes were spotted in duplicate onto poly-L-lysine coated slides using a GMS417 (Affymetrix) arrayer. Osteoarthritic cartilage samples were obtained from the femoral heads of clinically diagnosed canines undergoing total […] replacement. RNA was hybridized to the slides using the HC ExpressArray (Digene) kit and visualized using a GMS418 (Affymetrix) scanner. The Imagene (Biodiscovery) program was used for spot finding and subsequent data analysis was performed using GeneSight (Biodiscovery). Expression levels are represented after background subtraction, log(base 2) transformation and global slide signal normalization. […]
# Scanned images representing RNA transcripts bound to specific clones were quantified and checked for spot quality control using Imagene analysis software (BioDiscovery). Quantified images were analyzed using Genesight analysis software (BioDiscovery). The analysis represented subtraction of background surrounding the spots, averaging spot replicates, deletion of clone information representing clone hybridization signals not greater than 200 above background on all samples, log (base 2) transformation and global normalization of each slide (values expressed as percent of average spot intensity). […]
structure (smiles),measurement,value
"CC/C=C\C/C=C\C/C=C\C/C=C\C/C=C\CCCC(=O)O [Eicosapentaenoic acid (EPA), eicosapentaenoic acid]",effect on OA-related genes,affect OA-related genes
